## Primary screen of a compound library

The chains behind the UniProt entries cited, without tags or fusion partners.
UniProt E9BF75, entry or part of it: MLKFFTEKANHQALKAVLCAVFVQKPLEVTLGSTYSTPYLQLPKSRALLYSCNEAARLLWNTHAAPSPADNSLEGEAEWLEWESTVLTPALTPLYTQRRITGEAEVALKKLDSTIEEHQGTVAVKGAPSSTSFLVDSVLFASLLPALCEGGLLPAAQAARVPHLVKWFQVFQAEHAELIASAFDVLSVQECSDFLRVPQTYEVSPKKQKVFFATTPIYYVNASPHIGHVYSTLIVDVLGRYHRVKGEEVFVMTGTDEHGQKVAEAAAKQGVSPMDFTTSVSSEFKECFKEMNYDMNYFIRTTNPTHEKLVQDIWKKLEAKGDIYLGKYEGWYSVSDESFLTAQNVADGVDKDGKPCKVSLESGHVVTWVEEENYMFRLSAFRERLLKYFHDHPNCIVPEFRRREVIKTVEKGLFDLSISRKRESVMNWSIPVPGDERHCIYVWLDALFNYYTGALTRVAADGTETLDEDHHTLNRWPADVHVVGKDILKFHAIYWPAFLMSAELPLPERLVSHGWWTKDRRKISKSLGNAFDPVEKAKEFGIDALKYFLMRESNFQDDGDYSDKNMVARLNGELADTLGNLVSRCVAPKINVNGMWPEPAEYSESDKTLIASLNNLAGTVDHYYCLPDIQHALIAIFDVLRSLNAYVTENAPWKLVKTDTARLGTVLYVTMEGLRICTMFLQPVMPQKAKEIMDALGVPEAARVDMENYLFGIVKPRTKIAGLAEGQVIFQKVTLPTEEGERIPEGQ

Measurements from “University of Dundee, Small-Polar-MMV Screening Library” (2021), ChEMBL document CHEMBL3988442.

Mtb heat-shock: 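Assay on Mycobacterium tuberculosis, filed only as a heat shock assay from Cornell; the read-out is not stated. The concentration is filed as 10 mM, unlikely as a test dose, so the dose is not known. Higher reads as stronger inhibition (inferred: compounds with an IC50 in retests scored well above the rest). About 69,000 compounds were tested under these conditions; 1.4% (about 930) showed 50% or more at least once.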
LdMetRS: 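Primary screen of methionyl-tRNA synthetase; the read-out is not stated. Target: Methionyl-tRNA synthetase (putative), Leishmania donovani (UniProt E9BF75). The test concentration is not given. The values are filed as inhibition. About 68,000 compounds were tested under these conditions; 0.035% (about 24) showed 50% or more at least once.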
Mtb growth Cornell: 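Whole-cell assay for inhibitors of Mycobacterium tuberculosis growth, labelled Cornell in the record; the read-out is not stated. The concentration is filed as 10 mM, unlikely as a test dose, so the dose is not known. The record gives no direction; compounds strong in two other growth screens of this library score well above the rest, so higher reads as stronger inhibition. Size under these conditions: about 53,000 compounds, about 900 of them at 50% or above in at least one test.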

All values are in %.
The record does not define 0% and 100%; most values in the screen are far below 50% and negative numbers occur (in some assays of this library far below -100).
The compounds are a random part of those screened.
A dash means the value is not listed here; it may have been measured.

| # | SMILES | Mtb heat-shock | LdMetRS | Mtb growth Cornell |
|---|---|---|---|---|
| 1 | `[H][C@]12CC[C@]([H])(CN(Cc3cccnc3)C1)N(C(=O)c1ccncc1F)C2` | -22.91 | - | - |
| 2 | `O=C(N[C@@H]1CN(Cc2ccsc2)[C@@H]2CCCO[C@@H]21)C1CC1` | - | 12.13 | - |
| 3 | `CCS(=O)(=O)NC[C@]12COC[C@H]1CN(Cc1cccnc1OC)C2` | - | 19.31 | - |
| 4 | `Cl.N#Cc1cnc2ccccc2c1N1CCN(CCC(=O)O)CC1` | -8.557 | - | -38.27 |
| 5 | `Cc1noc(CNC(=O)NCCc2ccc(Cl)cc2)n1` | -20.48 | 12.33 | - |
| 6 | `CCOCCCNC(=O)C1(C)CCC(=O)N1c1cc(OC)ccc1OC` (centres undefined) | 7.273 | 13.02 | - |
| 7 | `O=C([C@@H]1CCCO1)N1CCC(Cn2cc(-c3ccsc3)nn2)CC1` | 7.87 | 2.135 | - |
| 8 | `Cc1cc(C(=O)N2CCC3(CCC(=O)N(CC(N)=O)C3)CC2)ccc1O` | -0.8133 | 15.01 | 6.311 |
| 9 | `Cn1cc(CCC(=O)NS(=O)(=O)N2CCCc3ccccc32)cn1` | 2.006 | 4.749 | -73.09 |
| 10 | `CC1(C)CCN1C(=O)c1cc(F)cc2[nH]cnc12` | 3.228 | 17.54 | 37.25 |
| 11 | `COCCNc1nc2c(c(NCCc3cccs3)n1)CCNCC2` | 55.02 | 31.43 | 20.67 |
| 12 | `Cc1ccc(S(=O)(=O)NCCNC(=O)c2ccoc2)cc1C` | -4.42 | 20.63 | -3.451 |
| 13 | `CC(C)c1noc(CCNC(=O)N2CCN(c3cccs3)CC2)n1` | 1.374 | 16.62 | 4.976 |
| 14 | `CN(C)CC1(O)CCCN(Cc2cnc(-c3ccco3)nc2)CC1` (centres undefined) | -24.1 | 16.19 | 21.67 |
| 15 | `COc1c(C)cnc(CN(C)C(=O)c2ccccc2F)c1C` | 14.85 | 9.966 | 2.058 |
| 16 | `COc1ccc(F)cc1CN1CCN(Cc2nccn2C)C(C)C1` (centres undefined) | -8.956 | 4.467 | - |
| 17 | `Cc1cnc(N2CCC3(CC2)CC3CN(C)Cc2cccnc2)nc1` (centres undefined) | - | -3.114 | - |
| 18 | `CC(=O)c1cn(CC(=O)N2CCC(O)(CO)CC2)c2ccccc12` | 10.5 | 9.059 | -2.883 |
| 19 | `Fc1ccc(CN2CCC(F)(F)C3(CCN(c4cnccn4)C3)C2)cc1` (centres undefined) | - | 1.987 | - |
| 20 | `O=C(O)c1nnn(-c2ccc(Cl)c(C(F)(F)F)c2)c1-c1ccncc1` | -4.097 | 6.997 | 2.196 |
| 21 | `COCc1nc(C(=O)NS(=O)(=O)c2cc(C)ccc2C)cs1` | 14.85 | -0.2494 | - |
| 22 | `COc1ncccc1CNC(=O)c1ccc(C)[nH]c1=O` | -3.385 | 7.232 | - |
| 23 | `CCN(CC)C1CCN(c2ncnc3c2CCN(C(=O)C2CC2)C3)C1` (centres undefined) | 1.123 | 14.29 | 15.63 |
| 24 | `CCCN(CCC)c1ncc(S(=O)(=O)c2cccc(C)c2)c(N)n1` | -14.6 | 14.48 | 19.8 |
| 25 | `COC(=O)C1Cc2nc[nH]c2CN1Cc1ccc(Sc2ncccn2)o1` (centres undefined) | -20.75 | 11.28 | - |
| 26 | `Cc1nc(C)n(CC2CCCN(Cc3nc(-c4ccco4)no3)C2)n1` (centres undefined) | -15.96 | 4.244 | -13.44 |
| 27 | `[H][C@@]12CS(=O)(=O)C[C@]1([H])NCCN2c1ccnc(N(C)Cc2ccccn2)n1` | 1.634 | - | 2.138 |
| 28 | `CS(=O)(=O)NCC1CCCN(Cc2ccccc2F)C1` (centres undefined) | 1.64 | 13.13 | -8.438 |
| 29 | `O=C(CN1CCCC1Cn1cccn1)NCCC1=CCCCC1` (centres undefined) | -3.556 | 23.94 | - |
| 30 | `COc1ccc(Br)cc1SCCS(C)(=O)=O` | 6.058 | 20.34 | 19.75 |
| 31 | `Cn1cccc1C(=O)NCc1cn2c(n1)CN(Cc1cccnc1)CC2` | - | 18.13 | - |
| 32 | `Cc1ccc(C(=O)N2CCC3(CCN(c4ccsc4)C3=O)C2)cn1` (centres undefined) | - | 4.11 | - |
| 33 | `CCc1nccn1-c1nccnc1C1CCCN(C(=O)COC)C1` (centres undefined) | -13.63 | 16.13 | -4.713 |
| 34 | `COCc1noc(Cn2c(C)cc(C(F)(F)F)cc2=O)n1` | 15.6 | 13.32 | - |
| 35 | `Cc1nc(CCCNC(=O)Nc2cc(F)cc(F)c2)n[nH]1` | 10 | 14.71 | 19.9 |
| 36 | `CN(Cc1ccccc1)c1ncccc1CNC1CCSCC1` | 13.19 | 18.18 | 12.64 |
| 37 | `CC(C)c1nnc2n1CCN(CCC(=O)N1CCc3ccccc31)C2` | -13 | 14.21 | - |
| 38 | `CCNC(=O)c1ccc(NC(=O)N(C)Cc2cc(C)on2)c(C)c1` | 11.63 | -8.672 | -6.441 |
| 39 | `N#Cc1cccnc1N1CCC(C2CCCCCN2C(=O)C2CC2)CC1` (centres undefined) | -0.6815 | 13.11 | - |
| 40 | `CC1N(C)C(=O)COC12CCN(Cc1ccsc1)CC2.O=C(O)C(F)(F)F` (centres undefined) | -22.64 | - | 14.41 |
| 41 | `COCCNC(=O)c1cc(-c2cc[nH]n2)n2ccccc12` | - | 11.98 | - |
| 42 | `O=C(NCCc1ccncc1)[C@H]1CC[C@@H]2[C@@H](CCN2C2CCC2)O1` | - | 3.704 | - |
| 43 | `CN(Cc1ccc(N(C)C)cc1)C(=O)NCc1nnc2n1CCC2` | -14.33 | 17.22 | -33.55 |
| 44 | `Cc1n[nH]c(C2CN(CC(=O)NCc3sccc3C)CCO2)n1` (centres undefined) | -31.55 | 19.16 | 14.31 |
| 45 | `COCC1CC2(CCNCC2)CN1c1ncccn1` (centres undefined) | -45.49 | 12.59 | 18.62 |
| 46 | `COCCNc1nc2c(c(N3CCn4nc(C)cc4C3)n1)CCNCC2` | 11.64 | 14.72 | - |
| 47 | `Cc1nc(CN2CCC23CCN(C(=O)c2ccncc2)CC3)cs1` | -10.24 | 15.94 | -5.452 |
| 48 | `CCn1ccnc1CN1CCCN(C(=O)Cc2ccc(C)nc2)CC1` | -0.1627 | 11.81 | - |
| 49 | `CC(C)NC(=O)C1CCC2(CCN(c3ncccn3)CC2)CO1` (centres undefined) | -18.78 | 20.29 | 24.45 |
| 50 | `Cn1nc(COc2cccnc2)c2c1CCN(c1ncccn1)C2` | 21.2 | 0.5168 | -1.63 |
| 51 | `O=C(O)C(F)(F)F.O=C(O)C(F)(F)F.[H][C@@]12CCN(Cc3ccncc3)C[C@@]1([H])O[C@@H](C(=O)NCCOC)C2` | -11.31 | - | 13.74 |
| 52 | `CCN1CCC(N2C[C@H]3OC(=O)N(CCc4cccc(Cl)c4)[C@H]3C2)CC1` | - | 13.41 | - |
| 53 | `CN1C[C@H](O)[C@]2(CCN(C(=O)NCc3ccccc3)C2)S1(=O)=O` | 0.08979 | 7.838 | 14.49 |
| 54 | `N#Cc1ccc(S(=O)(=O)NC(=O)COc2ccc3c(c2)CCC3)cc1` | -2.293 | 15.21 | - |
| 55 | `Cc1cc(CS(=O)(=O)NC2CCCCC2)on1` | 8.545 | 11.02 | -69.07 |
| 56 | `CC(NCc1cnc(C2CCC2)s1)c1cccc(-n2cccn2)c1` (centres undefined) | -20.68 | 1.504 | - |
| 57 | `O=C([C@H]1CN(Cc2cccnc2)C[C@H]2OCC[C@@H]12)N1CCCO1` | - | 5.537 | - |
| 58 | `COCCN1CCc2ncnc(-c3ccccc3)c2CC1` | - | 15.58 | - |
| 59 | `O=C(O)C(F)(F)F.[H][C@@]12CN(Cc3ccc(C)cc3)C[C@]1([H])CN(C(=O)c1cccn1C)C2` | -6.874 | - | 33.59 |
| 60 | `CN(C)S(=O)(=O)c1ccc(-c2nc(C#N)c(NC(C)(C)C)o2)o1` | - | 15.99 | - |
| 61 | `O=C(N[C@@H]1CCN(C(=O)c2cc[nH]c2)C[C@H]1O)c1ccccn1` | -5.139 | 2.235 | -18.14 |
| 62 | `CSCC[C@@H]1CN2CCC[C@H]2CN1Cc1coc2ccc(Cl)cc2c1=O` | - | 12.73 | - |
| 63 | `CCc1nccn1C1CCCN(C(=O)c2cccc3c2OCO3)C1` (centres undefined) | -4.553 | 21.08 | -43.9 |

For reference, 6 entries once more:

- Cc1noc(CNC(=O)NCCc2ccc(Cl)cc2)n1 | Mtb heat-shock: -20.48%; LdMetRS: 12.33%
- CCCN(CCC)c1ncc(S(=O)(=O)c2cccc(C)c2)c(N)n1 | Mtb heat-shock: -14.6%; LdMetRS: 14.48%; Mtb growth Cornell: 19.8%
- CC(C)c1nnc2n1CCN(CCC(=O)N1CCc3ccccc31)C2 | Mtb heat-shock: -13%; LdMetRS: 14.21%
- CCn1ccnc1CN1CCCN(C(=O)Cc2ccc(C)nc2)CC1 | Mtb heat-shock: -0.1627%; LdMetRS: 11.81%
- CN(C)S(=O)(=O)c1ccc(-c2nc(C#N)c(NC(C)(C)C)o2)o1 | LdMetRS: 15.99%
- Cc1cc(CS(=O)(=O)NC2CCCCC2)on1 | Mtb heat-shock: 8.545%; LdMetRS: 11.02%; Mtb growth Cornell: -69.07%